PubChem BioAssay AID1259308 | NCATS, 2017
The whole screen tested about 59,000 reagents; shown is a random part of them. Of all reagents, about 1,510 (2.6%) are marked active. 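Calls use total luciferase alone and ignore viability, so some active siRNAs may act by altering cell number.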 A number with no mark means an inactive call. Further read-outs or replicates are left out here. Reagent sequences are not shown.

- Screen: 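Candidate targets for better recombinant protein yield in mammalian cells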 (primary screen)
- Cells: human HEK293 embryonic kidney cells stably expressing firefly luciferase (HEK-CMV-Luc2-Hygro)
- Reagents: single siRNA against human genes, 0.8 pmol siRNA per well
- Timing: 72 h
- Measurement: 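Reporter luminescence and viable-cell signal on separate replicate plates, given as percent of non-targeting control and median/MAD z-scores, plus per-cell luciferase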
- Scale: total luciferase, z-score: higher = more reporter protein produced
- Call rule: 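An siRNA counts as active if its total luciferase robust z-score exceeds 3; genes with two or more such siRNAs out of three were retested with fresh siRNAs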
- Calls: active = raised luciferase; inactive = no rise

gene symbol	PubChem SID	total luciferase, z-score
DNAI1	SID160738254	-2.12
DNAI1	SID160738255	-0.585
DNAI1	SID160738256	1.48
CCDC9B	SID160765766	-0.887
CCDC9B	SID160765767	-0.874
CCDC9B	SID160765768	-3.33
HOXA10	SID160775177	0.478
HOXA10	SID160775178	-0.0436
HOXA10	SID160775179	-0.117
RPLP1P5	SID160724810	2.52
RPLP1P5	SID160724811	0.548
RPLP1P5	SID160756991	-1.88
FASTKD3	SID160748580	0.259
FASTKD3	SID160748582	-0.555
FASTKD3	SID160748583	-0.227

Records listed so far whose gene name begins with H or h:
gene symbol	PubChem SID	total luciferase, z-score
HOXA10	SID160775177	0.478
HOXA10	SID160775178	-0.0436
HOXA10	SID160775179	-0.117

The listing continues:
gene symbol	PubChem SID	total luciferase, z-score
HSBP1L1	SID160733396	-2.16
HSBP1L1	SID160767793	3.22 (active)
HSBP1L1	SID160767794	-0.388
PLEKHM3	SID160766077	-1.04
PLEKHM3	SID160766078	0.702
PLEKHM3	SID160766079	0.0695
RPL27AP2	SID160766645	0.275
RPL27AP2	SID160766646	-0.244
RPL27AP2	SID160766647	0.537
PI3	SID160714274	1.16
PI3	SID160714275	-2.21
PI3	SID160731413	-0.428
SETD1B	SID160735370	-0.293
SETD1B	SID160735372	-1.53
SETD1B	SID160735373	-0.769
TMEM107	SID160752139	0.711
TMEM107	SID160752140	-0.659
TMEM107	SID160752141	-0.0386
CC2D1B	SID160760790	-0.535
CC2D1B	SID160760791	-0.559
CC2D1B	SID160760792	0.181
C1orf174	SID160733083	2.39
C1orf174	SID160764228	0.318
C1orf174	SID160764230	1.17
